Source: the supplement of paper PMC6078165
± gives the standard deviation of the averaged measurements. Values are relative to the signal before dosing, not to a vehicle control; the signal also falls without drug.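 The cancer cells are triple-negative breast cancer lines of basal-like or mesenchymal-like type, grown without fibroblasts. A drop in red signal reflects loss of mitochondrial integrity, a stand-in for apoptotic death.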

How the values were obtained:
[1] = tested on: HCC1143; experiment: relative JC-1 red fluorescence (viability) vs pre-drug, monoculture (fraction); higher = more viable cancer cells; settings: coculture fibroblast: none (monoculture)
Description: (§1)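 JC-1 labelled TNBC cells grown in monoculture (density kept equal with unlabelled cancer cells) in 384-well plates in FluoroBrite medium, treated with one of 42 anticancer drugs at 0.1, 1, 10 or 100 uM. JC-1 red fluorescence (mitochondrial integrity, surrogate of apoptotic death) was read by plate reader every 8 h for 72 h. Values are normalised to each well's pre-drug value, with background from alamethicin. The stock of one drug was tenfold lower, so its dose labels may be too high. Monoculture values are repeated alongside each fibroblast plate and are averaged here.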

[2] = tested on: MDAMB436; experiment: as above; settings: coculture fibroblast: none (monoculture)
Description: as §1

CC(=O)O[C@@]12CO[C@@H]1C[C@H](O)[C@@]1(C)C(=O)[C@H](O)C3=C(C)[C@@H](OC(=O)[C@H](O)[C@@H](NC(=O)OC(C)(C)C)c4ccccc4)C[C@@](O)([C@@H](OC(=O)c4ccccc4)[C@H]21)C3(C)C [Docetaxel]
relative JC-1 red fluorescence
Settings	8 h	16 h	24 h	32 h	40 h	48 h	56 h	64 h	72 h
[1], 0.1 µM	0.9193 ± 0.0013	0.796 ± 0.013	0.7199 ± 0.0046	0.6405 ± 0.0056	0.59737 ± 0.00023	0.5904 ± 0.0041	0.583 ± 0.018	0.589 ± 0.028	0.595 ± 0.033
[1], 1 µM	0.8839 ± 0.0078	0.818 ± 0.024	0.703 ± 0.041	0.624 ± 0.051	0.578 ± 0.067	0.532 ± 0.063	0.509 ± 0.064	0.508 ± 0.071	0.501 ± 0.068
[1], 10 µM	0.901 ± 0.014	0.811 ± 0.027	0.713 ± 0.033	0.61 ± 0.031	0.55 ± 0.02	0.523 ± 0.0073	0.4934 ± 0.0028	0.478 ± 0.0092	0.473 ± 0.018
[1], 100 µM	0.659 ± 0.081	0.564 ± 0.12	0.563 ± 0.15	0.576 ± 0.17	0.589 ± 0.18	0.609 ± 0.2	0.614 ± 0.19	0.628 ± 0.2	0.641 ± 0.2
[2], 0.1 µM	0.8591 ± 0.0055	0.703 ± 0.01	0.726 ± 0.018	0.681 ± 0.033	0.662 ± 0.024	0.656 ± 0.024	0.656 ± 0.031	0.664 ± 0.043	0.669 ± 0.037
[2], 1 µM	0.85114 ± 0.00084	0.785 ± 0.013	0.785 ± 0.012	0.7483 ± 0.0068	0.73 ± 0.0078	0.711 ± 0.023	0.695 ± 0.026	0.679 ± 0.023	0.675 ± 0.028
[2], 10 µM	0.911 ± 0.019	0.8595 ± 0.0026	0.887 ± 0.021	0.857 ± 0.03	0.856 ± 0.041	0.87 ± 0.055	0.873 ± 0.07	0.877 ± 0.069	0.885 ± 0.073
[2], 100 µM	0.84418 ± 0.00012	0.7783 ± 0.0065	0.77 ± 0.0085	0.729 ± 0.011	0.713 ± 0.011	0.691 ± 0.023	0.672 ± 0.031	0.656 ± 0.03	0.653 ± 0.04

CC(=O)c1c(C)c2cnc(Nc3ccc(N4CCNCC4)cn3)nc2n(C2CCCC2)c1=O [Palbociclib]
relative JC-1 red fluorescence
Settings	8 h	16 h	24 h	32 h	40 h	48 h	56 h	64 h	72 h
[1], 0.1 µM	0.8827 ± 0.0036	0.787 ± 0.011	0.6992 ± 0.0059	0.633 ± 0.011	0.574 ± 0.0093	0.523 ± 0.0086	0.493 ± 0.0095	0.457 ± 0.01	0.4275 ± 0.004
[1], 1 µM	0.9026 ± 0.0053	0.83762 ± 0.0006	0.7811 ± 0.0024	0.7344 ± 0.00039	0.6948 ± 0.0037	0.6514 ± 0.002	0.6208 ± 0.0011	0.596 ± 0.0075	0.573 ± 0.011
[1], 10 µM	0.969 ± 0.025	0.936 ± 0.034	0.894 ± 0.025	0.857 ± 0.017	0.799 ± 0.012	0.746 ± 0.014	0.70834 ± 0.0004	0.6717 ± 0.0043	0.6422 ± 0.0032
[1], 100 µM	0.547 ± 0.32	0.356 ± 0.24	0.198 ± 0.12	0.113 ± 0.062	0.0798 ± 0.047	0.0657 ± 0.04	0.0529 ± 0.038	0.0449 ± 0.036	0.0348 ± 0.03
[2], 0.1 µM	0.8675 ± 0.0073	0.83 ± 0.021	0.794 ± 0.015	0.744 ± 0.029	0.736 ± 0.034	0.724 ± 0.042	0.725 ± 0.042	0.73 ± 0.045	0.731 ± 0.051
[2], 1 µM	0.886 ± 0.02	0.788 ± 0.034	0.823 ± 0.025	0.783 ± 0.027	0.771 ± 0.021	0.778 ± 0.025	0.768 ± 0.019	0.76 ± 0.025	0.766 ± 0.018
[2], 10 µM	0.913 ± 0.02	0.897 ± 0.0097	0.909 ± 0.0094	0.8503 ± 0.0043	0.848 ± 0.015	0.8354 ± 0.0063	0.8403 ± 0.0051	0.834 ± 0.0089	0.823 ± 0.016
[2], 100 µM	0.834 ± 0.012	0.656 ± 0.018	0.606 ± 0.033	0.507 ± 0.054	0.452 ± 0.056	0.419 ± 0.052	0.391 ± 0.052	0.37 ± 0.049	0.349 ± 0.051
